Results are given in words; binding and its absence hold for the method and conditions named. Binding seen in cells or lysates may run through a third protein. These calls come from enrichment with a bait or labelling near it, and not all partners need be listed.
Molecular target: TRIAD3A fused to an engineered biotin ligase (TurboID) (AAV-CAMKII-TRIAD3A-V5-TurboID) (UniProt Q9NWF9)
Test: proximity labelling

Protein sequences, listed by entry. Tags and fused reporters are not part of them. Lines headed by an entry give the natural chain unless they say otherwise; changes in a name come on top.
UniProt Q9NWF9, whole entry, stated change not applied: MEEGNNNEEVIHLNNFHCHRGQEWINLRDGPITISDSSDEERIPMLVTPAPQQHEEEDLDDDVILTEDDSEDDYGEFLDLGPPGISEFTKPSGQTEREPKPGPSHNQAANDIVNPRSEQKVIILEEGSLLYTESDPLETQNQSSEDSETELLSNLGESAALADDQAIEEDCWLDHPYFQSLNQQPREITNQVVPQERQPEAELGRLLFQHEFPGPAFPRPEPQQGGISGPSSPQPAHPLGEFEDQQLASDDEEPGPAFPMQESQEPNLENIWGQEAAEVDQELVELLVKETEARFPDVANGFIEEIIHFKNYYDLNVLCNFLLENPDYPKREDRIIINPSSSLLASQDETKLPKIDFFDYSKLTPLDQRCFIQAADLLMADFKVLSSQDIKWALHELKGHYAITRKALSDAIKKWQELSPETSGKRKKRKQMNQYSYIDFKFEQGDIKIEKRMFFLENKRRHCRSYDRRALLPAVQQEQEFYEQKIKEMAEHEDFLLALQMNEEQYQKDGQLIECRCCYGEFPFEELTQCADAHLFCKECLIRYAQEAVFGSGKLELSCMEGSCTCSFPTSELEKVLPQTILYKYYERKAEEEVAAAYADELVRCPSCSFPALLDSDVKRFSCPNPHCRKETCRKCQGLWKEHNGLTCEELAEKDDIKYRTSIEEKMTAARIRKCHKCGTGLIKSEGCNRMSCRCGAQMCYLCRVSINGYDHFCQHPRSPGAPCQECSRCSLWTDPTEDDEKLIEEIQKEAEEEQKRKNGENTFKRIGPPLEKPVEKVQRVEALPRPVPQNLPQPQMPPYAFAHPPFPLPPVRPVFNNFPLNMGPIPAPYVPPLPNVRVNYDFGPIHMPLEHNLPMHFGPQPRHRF

TARDBP/TDP-43 (from UniProt Q921F2 1-414)
binding: binds

tau (mouse brain, biotinylated by TRIAD3A-TurboID) (from UniProt P10637-2)
binding: binds

Source: paper doi:10.1101/2023.09.28.559893
